Data: article doi:10.1101/2023.12.05.570171
Results are given in words; binding and its absence hold for the method and conditions named. Binding seen in cells or lysates may run through a third protein. Some results given as binding are weak or reduced against the parent protein; the word gives no strength.

By UniProt entry, the sequences of proteins in these tests, tags left out.
UniProt O54992: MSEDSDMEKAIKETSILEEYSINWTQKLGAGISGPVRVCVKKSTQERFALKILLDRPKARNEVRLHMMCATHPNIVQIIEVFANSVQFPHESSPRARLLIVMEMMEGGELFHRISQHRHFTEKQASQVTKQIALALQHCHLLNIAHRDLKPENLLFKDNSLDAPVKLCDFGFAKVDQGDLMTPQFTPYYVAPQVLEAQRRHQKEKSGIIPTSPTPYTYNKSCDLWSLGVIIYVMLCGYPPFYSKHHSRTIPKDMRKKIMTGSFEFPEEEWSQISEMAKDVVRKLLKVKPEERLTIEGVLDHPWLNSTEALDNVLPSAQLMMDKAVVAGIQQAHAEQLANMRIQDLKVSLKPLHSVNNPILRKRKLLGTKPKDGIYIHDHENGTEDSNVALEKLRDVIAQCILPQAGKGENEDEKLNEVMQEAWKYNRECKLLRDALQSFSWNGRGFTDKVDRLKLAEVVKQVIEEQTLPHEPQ
UniProt P47811: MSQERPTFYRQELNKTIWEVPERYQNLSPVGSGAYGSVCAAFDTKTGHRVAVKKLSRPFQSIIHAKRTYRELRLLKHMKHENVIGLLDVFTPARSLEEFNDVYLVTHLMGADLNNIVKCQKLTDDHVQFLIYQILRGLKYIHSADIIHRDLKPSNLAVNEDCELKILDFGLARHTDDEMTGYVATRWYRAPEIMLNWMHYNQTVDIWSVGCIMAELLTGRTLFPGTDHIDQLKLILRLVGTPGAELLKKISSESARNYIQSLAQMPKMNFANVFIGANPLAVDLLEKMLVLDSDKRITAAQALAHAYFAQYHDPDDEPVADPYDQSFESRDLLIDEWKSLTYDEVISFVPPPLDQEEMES
UniProt Q6P5G0: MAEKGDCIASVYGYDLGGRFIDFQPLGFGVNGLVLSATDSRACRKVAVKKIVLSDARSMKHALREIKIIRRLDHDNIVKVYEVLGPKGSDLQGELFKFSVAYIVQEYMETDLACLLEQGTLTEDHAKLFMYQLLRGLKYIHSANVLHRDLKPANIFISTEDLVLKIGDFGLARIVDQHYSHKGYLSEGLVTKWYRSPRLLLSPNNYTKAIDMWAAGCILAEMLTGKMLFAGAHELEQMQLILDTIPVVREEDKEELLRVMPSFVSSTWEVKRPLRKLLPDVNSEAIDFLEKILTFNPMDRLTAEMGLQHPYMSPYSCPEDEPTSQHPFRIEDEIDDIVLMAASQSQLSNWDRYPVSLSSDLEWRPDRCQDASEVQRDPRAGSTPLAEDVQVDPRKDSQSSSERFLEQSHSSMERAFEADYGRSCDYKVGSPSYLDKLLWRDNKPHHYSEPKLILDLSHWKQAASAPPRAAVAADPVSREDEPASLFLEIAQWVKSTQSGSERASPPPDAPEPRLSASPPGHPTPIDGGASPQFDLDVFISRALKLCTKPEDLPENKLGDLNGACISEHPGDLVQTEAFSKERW
UniProt Q61532: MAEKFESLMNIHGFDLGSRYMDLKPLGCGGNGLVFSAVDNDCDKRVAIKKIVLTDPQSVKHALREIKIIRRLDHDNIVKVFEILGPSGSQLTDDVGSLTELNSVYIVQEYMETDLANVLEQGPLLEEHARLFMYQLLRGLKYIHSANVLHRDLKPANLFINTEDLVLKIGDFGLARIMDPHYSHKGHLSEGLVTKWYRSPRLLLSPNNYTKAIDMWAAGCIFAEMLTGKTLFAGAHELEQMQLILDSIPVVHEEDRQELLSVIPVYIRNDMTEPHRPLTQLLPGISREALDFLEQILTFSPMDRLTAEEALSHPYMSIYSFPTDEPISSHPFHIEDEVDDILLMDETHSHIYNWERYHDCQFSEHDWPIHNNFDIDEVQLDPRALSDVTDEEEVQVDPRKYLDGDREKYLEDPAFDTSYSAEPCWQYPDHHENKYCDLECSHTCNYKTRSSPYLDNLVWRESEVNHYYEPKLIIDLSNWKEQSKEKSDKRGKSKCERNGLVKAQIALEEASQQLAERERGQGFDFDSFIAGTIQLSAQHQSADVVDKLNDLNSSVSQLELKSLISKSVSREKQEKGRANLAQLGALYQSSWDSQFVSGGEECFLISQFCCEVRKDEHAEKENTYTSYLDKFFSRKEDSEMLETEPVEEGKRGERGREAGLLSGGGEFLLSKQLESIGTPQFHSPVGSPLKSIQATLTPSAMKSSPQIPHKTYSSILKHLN

molecular target: MAP kinase-activated protein kinase (MK)-5 (mouse (endogenous in heart)) (UniProt O54992); experiment: co-IP

Row | Substance | binding
1 | p38α MAP kinase (from UniProt P47811 1-360) | no binding
2 | ERK4/MAPK4 (from UniProt Q6P5G0 1-583) | no binding
3 | extracellular-regulated kinase (ERK)3/MAPK6 (from UniProt Q61532 1-720) | binds
